{"source": "patent US11571407B2", "about": "“Bicalutamide analogs or (S)-bicalutamide as exocytosis activating compounds for use in the treatment of a lysosomal storage disorder or glycogenosis” (BCN PEPTIDES, S.A., priority 2013, dated 2023)", "tested_on": "fibroblasts from a patient affected by Sanfilippo B disease and control fibroblasts", "assay": "Analysis of LAMP1 on the surface as a marker of exocytosis (confocal microscopy)", "format": "cell-based, human", "details": "50 μM; Sanfilippo B (p.[Y658F]+[Y658F]) and healthy control fibroblasts", "note": "For at least one compound, name, drawing or mass did not settle the structure.", "data": [{"smiles": "CC(O)(CS(=O)(=O)c1ccc(F)cc1)C(=O)Nc1ccc(C#N)c(C(F)(F)F)c1", "note": "(racemic) [Racemic Bicalutamide]", "values": [{"measurement": "fusion of the lysosome with the plasma membrane (surface LAMP1, FIG. 1)", "value": "increases the fusion of the lysosome with the plasma membrane"}]}]}
